{"source": "patent US20250002583A1", "about": "(PERSONGEN BIOTHERAPEUTICS SUZHOU, published 2025)", "molecular_target": "T1, CD276 protein in the Membrane Proteome Array (human) (UniProt Q5ZPR3)", "T1 sequence (looked up)": "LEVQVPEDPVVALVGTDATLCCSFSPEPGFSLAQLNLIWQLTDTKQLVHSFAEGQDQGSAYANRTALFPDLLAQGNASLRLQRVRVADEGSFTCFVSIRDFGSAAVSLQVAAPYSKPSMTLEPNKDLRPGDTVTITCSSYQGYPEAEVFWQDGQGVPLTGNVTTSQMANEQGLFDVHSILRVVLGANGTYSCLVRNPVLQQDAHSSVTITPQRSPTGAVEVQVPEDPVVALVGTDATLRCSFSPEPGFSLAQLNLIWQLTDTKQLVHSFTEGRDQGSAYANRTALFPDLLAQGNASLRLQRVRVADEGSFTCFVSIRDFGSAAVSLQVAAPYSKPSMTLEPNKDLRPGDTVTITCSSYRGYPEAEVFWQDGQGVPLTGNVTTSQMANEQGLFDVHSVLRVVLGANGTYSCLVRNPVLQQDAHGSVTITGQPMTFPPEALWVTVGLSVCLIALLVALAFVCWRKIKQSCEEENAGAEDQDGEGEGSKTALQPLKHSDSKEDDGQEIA", "assay": "Membrane Proteome Array, flow cytometry on unfixed cells", "note": "Results are given in words; binding and its absence hold for the method and conditions named. Some results given as binding are weak or reduced against the parent protein; the word gives no strength."}
{"binder": "CD276T1H1-T1L1 (antibody, V domains shown, Heavy chain variable region cloned into pcDNA3.1-IgG1Fc and light chain variable region into pcDNA3.1-IgKc (IgG1, kappa); also called humanized CD276 antibody (CD276T1H1-T1L1); CD276 humanized antibody) VH: EVQLVESGGGLIQPGGSLRLSCAASGFTFSTYVMSWVRQAPGKGLEWVSSILSGGTSFYADNVKGRFTISRDNSKNTLYLQMNSLRAEDTAVYYCARRYGHDHYYAMDYWGQGTLVTVSS VL: EIVLTQSPATLSLSPGERATLSCAASSSVSSSYLHWYQQKPGLAPRLLIYSTSNLASGIPDRFSGSGSGTDFTLTISRLEPEDFAVYYCQQYHRSPWTFGGGTKVEIK", "values": [{"measurement": "binding", "result": "binds"}]}
